Most values lie at the floor of the assay. Slopes are relative: functional sequences can read slightly below zero.
The substances below were run on Saccharomyces cerevisiae PS128 hsf1 delta, HSF1(1-493) fusion (assay: growth estimate (transactivation domain function in HSF1 fusion, heat-shock survival) (a.u. (slope of normalised read count over time)); higher = stronger growth at 37°C, i.e. more transactivation activity). Conditions: library: random library.
Protocol: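 Random 60-nt DNA library encoding peptides of up to 20 aa, fused to the C-terminus of yeast HSF1 residues 1-493 (C-terminal TAD deleted) and expressed from the native HSF1 promoter on a CEN plasmid in hsf1-deleted S. cerevisiae PS128. Cells were selected at 37°C on -trp 5-FOA plates for 0, 2, 4, 6 and 8 days and amplicons were sequenced. Growth estimate is the slope of a robust linear fit of total-sum-normalised read counts (normalised to the first time point) over time, using at least 2 replicates. Sequences are classed functional (TAD activity) above a threshold of -0.13, set from stop-codon control sequences.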

Substance	growth estimate
PCPTVPTHKRPPVTWRLFRN	< -0.25
YNSGRLGVGPSHPDGVVMAF	< -0.25
LGPRLVATRWIVPCAAES	< -0.25
SGDGGPDRAERSKYGEGNNR	< -0.25
GPTEQVSPFSPSLVG	< -0.25
APGRGYGDGLGVRKKRKRLE	< -0.25
HRRHRPGPGDNLTA	< -0.25
FTEVHLILRYYFPPVLGNRS	< -0.25
PRRGAPVEIPWPVR	< -0.25
LPQFCHGQLWRWAHKRPPYC	< -0.25
GGAEVTDYEHLFPPT	< -0.25
ERGATWECEMDVSAPSKAYA	< -0.25
GLAQFNRTRGISGIFSHFVI	< -0.25
MPAGTLSLTLALKQPGLAWP	< -0.25
VERCVLWMGRLAGGYGSFTA	-0.243
TGLGVLRTVNAPRKA	< -0.25
TNVVGFRAGSSCCT	< -0.25
ARGIAAAHHLGVTRDPTSRP	< -0.25
PRIRGQG	< -0.25
QPYCLYSAVRTCRGIQGRNP	< -0.25
YAGSLISTDRQQVGLRIYCL	< -0.25
FGQGVQSFCFCGLSRSRSIR	< -0.25
GRSTGVRCHHGTSCSPPSTP	< -0.25
LTIVACYVREHITHN	< -0.25

Substance	growth estimate
STG	< -0.25
VCQIRN	< -0.25
SLQQIQSETWWSTFEIRSVF	< -0.25
RGECGSIRCVQPYMAIPWVG	< -0.25
YDSLRHTSTFCNSAPERG	-0.191
GSSLFLVKSALLGRQVARLT	< -0.25
GSTTDNTRRGCILLGWGDGV	< -0.25
VGTLEGLCDHGTGTTVNNFT	< -0.25
MPRITFLITVGTCVGDSVSH	< -0.25
AHNGVKPLKHHKVRLNSEVV	< -0.25
LGLE	< -0.25
SQTAIYD	< -0.25
ESVGRTVVVMRDA	< -0.25
GNSHRMGSLESEL	< -0.25
SLIKHSMVAVAVGRLTALIW	< -0.25
AAAPSGQRGGRKYARPGAAM	< -0.25
AVTMAETHNSN	< -0.25
RISDQSRDRQQFIRSWRYRG	< -0.25
MEICERHGGGDLNATPTQAA	-0.246
GYYPLGNSSRSCITQGRHVL	< -0.25
LNLVK	< -0.25
PSTPLRLQAPDVEVMF	< -0.25
GDSVTPIVRGSVDDSSSVAR	< -0.25
RIKGGGLSCDW	< -0.25

Substance	growth estimate
GCQYMMVTSDSLCTQ	< -0.25
IHHEMVLGLVGRNRIACQRR	< -0.25
SSRSHALRESQN	< -0.25
MNG	< -0.25
LNPVSKTDQPERDVMRWFSA	< -0.25
SRYQCSLGSYNFRKGAWVFP	< -0.25
SGNGRCGRFEAGARWCARQT	< -0.25
TRGLVKFLAGER	< -0.25
FDLGG	< -0.25
ASDVLETLPRDHPFLGGLLG	-0.246
GLRS	< -0.25
KVAIQLCISGDRKYYRVADH	< -0.25
AFRSGAS	< -0.25
SFLQIARPTMCTGYNTVRNT	< -0.25
NLRQFLCEPTCGIVHERSVS	< -0.25
PYSQGETAWLTVLESLRQTQ	-0.182
EDLGFRLV	< -0.25
KIPLSYFMYLFGTQISDRPI	< -0.25
SHRGE	< -0.25
AIRPIGGVKPYRYQSTSMGS	< -0.25
TPQSGKEFFILPANFRGRV	< -0.25
YAAAAN	< -0.25
RKCPSTGHSD	< -0.25
ALWSSHHREKNVRALRGHSC	< -0.25

Substance	growth estimate
VHSWGVLG	< -0.25
LRSRKQMPASRE	< -0.25
TVHTVRGPRIGWTFSKL	< -0.25
GSPLVQIDVGRGVSESP	< -0.25
QATGRARFGGNPASPGSICW	< -0.25
SSYPEKGQKT	< -0.25
THNM	< -0.25
CCTLADSFAHRSV	< -0.25
EIAVFSMSYLLRLTGYFRGY	< -0.25
FDLVWTPGALQIRKIFRFAN	< -0.25
GGLFHGAFGEAKRSITLAPH	< -0.25
SDGTHMSRYPVSDKEISGYQ	< -0.25
RVVPRA	0.0482
GFWGSCAVHYLGHAIGSWRH	-0.0878
YPGPEKVWRLIL	< -0.25
VAQLRCSVAF	< -0.25
ACPYISIKLK	< -0.25
FAAKWQAGFRDKLMPPIYHP	< -0.25
FHLVVGRGRPWAVRDRPFP	-0.227
NIGRGKKVGGVRDPPAENTC	< -0.25
YSSTV	< -0.25
AMIEQEMAVCRVKGYTTEAN	< -0.25
LGNV	< -0.25
RSLVAEGEG	< -0.25

Substance	growth estimate
PWDQSYQIHLWRSVQGEPSP	< -0.25
GTSFFGLRPSIVATLSSDVS	< -0.25
QCGNVKGCQSEVS	< -0.25
GPNDQISRTRGASGIMFLPV	< -0.25
GATNP	< -0.25
AIHTLTPGKPVAKKMNRKSP	< -0.25
EEVIVSQGCRDPALIQRHEG	< -0.25
VERGDFRTDACNKFR	< -0.25
YEA	< -0.25
QMRKGYKGVL	< -0.25
PWKQ	< -0.25
CVLLSRYKEISQVLLVYMAK	< -0.25
GSAFCTRPRLR	< -0.25
QLMTDLGLWSLSDRGLERVS	< -0.25
DGRVGDAVKPRDDEVRRPMG	< -0.25
CKYGTCAKWCDGSSVSWARW	< -0.25
YARWIGTLAFLALNPATYFR	< -0.25
ARAVMASPTTEQESSFHRRR	< -0.25
SFINRKRFGPTIRRTA	< -0.25
SSCGTRQSPSRIILIWVRAI	< -0.25
VKGARWQLVNRRVGDRLCEP	< -0.25
EDAIFVTTLNLTFSGIDPCN	< -0.25
TSDVVRPQTLKSGCNRDLEV	< -0.25
PRSVASGVSQGWGHRVESRK	< -0.25

As entered above:
For growth estimate, ARAVMASPTTEQESSFHRRR is listed with < -0.25
For growth estimate, AIHTLTPGKPVAKKMNRKSP is listed with < -0.25
For growth estimate, QCGNVKGCQSEVS is listed with < -0.25

(cont.)

Substance	growth estimate
SAADFINSCRTRLLSELQAG	< -0.25
CEYWSLARRHPRSVTRDGRS	< -0.25
EQNI	< -0.25
YNDRRASRVRQ	< -0.25
RPENDVSA	< -0.25
ALEINVGSDK	-0.246
MRHGCRTELKCTCVDARSKP	< -0.25
NNWVLLL	-0.242
LGGWGSNS	< -0.25
WLEPLGQIQAYSIASTVYGV	< -0.25
TYQLEGGVLRILQK	< -0.25
GRTVLGLKEVHASVAPFQDH	< -0.25
VLIVSLR	< -0.25
WFWEDRSELWNTIHSLTNWI	< -0.25
LRVRAIATPHHRVEKRTIDH	< -0.25
RQLIR	< -0.25
YARMV	< -0.25
LWGFGYMTGPNRINVLLGPC	< -0.25
SPMHTCTGRSVGLDRVFTPV	< -0.25
YRFPVGL	< -0.25
ESAIDPETSCCVCTTEGQSY	< -0.25
SLNSESIT	< -0.25

Source: the supplement of paper PMC5949888
